Paper PMC6051671
These are yes or no findings as the source states them, for the method shown. For some of these results: In cells and extracts the contact can be indirect. Some results given as binding are weak or reduced against the parent protein; the word gives no strength.

The chains behind the UniProt entries cited, without tags or fusion partners.
UniProt P10238: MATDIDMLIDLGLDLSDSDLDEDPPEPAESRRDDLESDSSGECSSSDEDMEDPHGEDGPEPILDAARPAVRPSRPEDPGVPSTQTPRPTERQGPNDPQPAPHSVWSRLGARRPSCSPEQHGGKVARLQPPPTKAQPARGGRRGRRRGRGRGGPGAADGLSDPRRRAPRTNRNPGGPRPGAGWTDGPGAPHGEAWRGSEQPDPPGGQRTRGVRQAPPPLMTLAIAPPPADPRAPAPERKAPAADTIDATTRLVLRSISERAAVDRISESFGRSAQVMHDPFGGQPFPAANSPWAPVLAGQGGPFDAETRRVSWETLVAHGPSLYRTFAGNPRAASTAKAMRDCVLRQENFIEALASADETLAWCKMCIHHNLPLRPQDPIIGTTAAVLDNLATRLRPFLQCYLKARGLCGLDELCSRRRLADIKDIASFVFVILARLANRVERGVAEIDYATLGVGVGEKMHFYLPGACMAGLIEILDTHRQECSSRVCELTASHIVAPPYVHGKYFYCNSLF
UniProt P16749: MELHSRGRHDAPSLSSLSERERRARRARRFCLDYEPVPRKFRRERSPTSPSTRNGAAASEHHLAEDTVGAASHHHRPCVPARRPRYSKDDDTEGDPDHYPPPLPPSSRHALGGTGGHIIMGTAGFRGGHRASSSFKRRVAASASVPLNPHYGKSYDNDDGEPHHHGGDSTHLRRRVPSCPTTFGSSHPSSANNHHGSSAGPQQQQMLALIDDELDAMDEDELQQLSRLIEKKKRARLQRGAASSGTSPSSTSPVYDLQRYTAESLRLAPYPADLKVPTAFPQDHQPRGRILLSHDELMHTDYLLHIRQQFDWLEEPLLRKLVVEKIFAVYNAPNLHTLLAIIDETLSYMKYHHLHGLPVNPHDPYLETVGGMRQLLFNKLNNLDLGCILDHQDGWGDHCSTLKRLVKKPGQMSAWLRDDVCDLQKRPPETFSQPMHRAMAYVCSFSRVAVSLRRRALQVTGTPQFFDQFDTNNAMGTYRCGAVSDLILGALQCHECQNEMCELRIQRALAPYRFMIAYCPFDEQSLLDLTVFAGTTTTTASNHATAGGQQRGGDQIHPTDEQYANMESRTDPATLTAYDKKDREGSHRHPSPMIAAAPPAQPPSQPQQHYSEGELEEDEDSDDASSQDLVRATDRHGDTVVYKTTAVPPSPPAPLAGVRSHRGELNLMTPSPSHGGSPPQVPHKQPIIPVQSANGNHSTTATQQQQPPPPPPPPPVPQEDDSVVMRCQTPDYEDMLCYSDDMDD

Legend:
GST-SUMO2 (pGEX2T-SUMO2) = GST-SUMO2 (pGEX2T-SUMO2) (UniProt P61956); assay: pull-down; both purified
GST-Ubc9 (pGEX2T-Ubc9) = GST-Ubc9 (pGEX2T-Ubc9) (UniProt P63279); assay: pull-down; both purified
GST-SUMO1 (pGEX2T-SUMO1) = GST-SUMO1 (pGEX2T-SUMO1) (UniProt P63165); assay: pull-down; both purified
[1] = target: His6-SUMO1 (integrated copies in HeLa cells) (human) (UniProt P63165); assay: pull-down
[2] = target: His6-SUMO2 (integrated copies in HeLa cells) (human) (UniProt P61956); assay: pull-down
[3] = target: endogenous Ubc9 (E2 SUMO-conjugating enzyme) (human (endogenous in 293T)) (UniProt P63279); assay: co-IP

Row | Substance | binding (GST-SUMO2 (pGEX2T-SUMO2)) | binding (GST-Ubc9 (pGEX2T-Ubc9)) | binding (GST-SUMO1 (pGEX2T-SUMO1)) | binding [1] | binding [2] | binding [3]
1 | His6-UL54-3FLAG (pET15b-UL54-3FLAG) (from UniProt P10238 1-512) | binds | binds | binds | – | – | –
2 | His6-UL69-3FLAG (pET15b-UL69-3FLAG) (from UniProt P16749 1-744) | binds | binds | binds | – | – | –
3 | HSV-1 UL54/ICP27 with C-terminal triple FLAG tag (pCMV3FC-UL54) (from UniProt P10238 1-512) | – | – | – | binds | binds | binds
4 | EBV SM with C-terminal triple FLAG tag (pCMV3FC-SM) (from UniProt Q04360 1-479) | – | – | – | binds | binds | binds
5 | His6-SM-3FLAG (pET15b-SM-3FLAG) (from UniProt Q04360 1-479) | binds | – | – | – | – | –
6 | CMV UL69 with C-terminal triple FLAG tag (pCMV3FC-UL69) (from UniProt P16749 1-744) | – | – | – | binds | binds | binds
